{
  "source": "patent US20150328320A1",
  "about": "“Novel Pharmaceutical Composition” (GLAXOSMITHKLINE LLC, priority 2012, published 2015)",
  "experiment": "Taste of the drug substance",
  "note": "Read-outs that look alike come from different tables or passages of the source.",
  "data": [
    {"smiles": "CC(=O)Nc1cccc(-n2c(=O)n(C3CC3)c(=O)c3c(Nc4ccc(I)cc4F)n(C)c(=O)c(C)c32)c1", "note": "[Compound A, N-{3-[3-cyclopropyl-5-(2-fluoro-4-iodo-phenylamino)-6,8-dimethyl-2,4,7-trioxo-3,4,6,7-tetrahydro-2H-pyrido[4,3-d]pyrimidin-1-yl]phenyl}acetamide dimethyl sulfoxide solvate]", "values": [
      {"measurement": "taste", "value": "bitter taste"},
      {"measurement": "taste", "setting": "listed as trametinib", "value": "bitter"}
    ]}
  ]
}
